Experimental data reported in paper PMC9780223.
No constants are given. Whether binding was seen depends on the method and setting. Some binding calls cover weakened binding; strength is not graded here. Sequences can lack the tags named with a protein.

By UniProt entry, the sequences of proteins in these tests, tags left out. Residues count along the entry.
UniProt Q13219, residues 82-1627: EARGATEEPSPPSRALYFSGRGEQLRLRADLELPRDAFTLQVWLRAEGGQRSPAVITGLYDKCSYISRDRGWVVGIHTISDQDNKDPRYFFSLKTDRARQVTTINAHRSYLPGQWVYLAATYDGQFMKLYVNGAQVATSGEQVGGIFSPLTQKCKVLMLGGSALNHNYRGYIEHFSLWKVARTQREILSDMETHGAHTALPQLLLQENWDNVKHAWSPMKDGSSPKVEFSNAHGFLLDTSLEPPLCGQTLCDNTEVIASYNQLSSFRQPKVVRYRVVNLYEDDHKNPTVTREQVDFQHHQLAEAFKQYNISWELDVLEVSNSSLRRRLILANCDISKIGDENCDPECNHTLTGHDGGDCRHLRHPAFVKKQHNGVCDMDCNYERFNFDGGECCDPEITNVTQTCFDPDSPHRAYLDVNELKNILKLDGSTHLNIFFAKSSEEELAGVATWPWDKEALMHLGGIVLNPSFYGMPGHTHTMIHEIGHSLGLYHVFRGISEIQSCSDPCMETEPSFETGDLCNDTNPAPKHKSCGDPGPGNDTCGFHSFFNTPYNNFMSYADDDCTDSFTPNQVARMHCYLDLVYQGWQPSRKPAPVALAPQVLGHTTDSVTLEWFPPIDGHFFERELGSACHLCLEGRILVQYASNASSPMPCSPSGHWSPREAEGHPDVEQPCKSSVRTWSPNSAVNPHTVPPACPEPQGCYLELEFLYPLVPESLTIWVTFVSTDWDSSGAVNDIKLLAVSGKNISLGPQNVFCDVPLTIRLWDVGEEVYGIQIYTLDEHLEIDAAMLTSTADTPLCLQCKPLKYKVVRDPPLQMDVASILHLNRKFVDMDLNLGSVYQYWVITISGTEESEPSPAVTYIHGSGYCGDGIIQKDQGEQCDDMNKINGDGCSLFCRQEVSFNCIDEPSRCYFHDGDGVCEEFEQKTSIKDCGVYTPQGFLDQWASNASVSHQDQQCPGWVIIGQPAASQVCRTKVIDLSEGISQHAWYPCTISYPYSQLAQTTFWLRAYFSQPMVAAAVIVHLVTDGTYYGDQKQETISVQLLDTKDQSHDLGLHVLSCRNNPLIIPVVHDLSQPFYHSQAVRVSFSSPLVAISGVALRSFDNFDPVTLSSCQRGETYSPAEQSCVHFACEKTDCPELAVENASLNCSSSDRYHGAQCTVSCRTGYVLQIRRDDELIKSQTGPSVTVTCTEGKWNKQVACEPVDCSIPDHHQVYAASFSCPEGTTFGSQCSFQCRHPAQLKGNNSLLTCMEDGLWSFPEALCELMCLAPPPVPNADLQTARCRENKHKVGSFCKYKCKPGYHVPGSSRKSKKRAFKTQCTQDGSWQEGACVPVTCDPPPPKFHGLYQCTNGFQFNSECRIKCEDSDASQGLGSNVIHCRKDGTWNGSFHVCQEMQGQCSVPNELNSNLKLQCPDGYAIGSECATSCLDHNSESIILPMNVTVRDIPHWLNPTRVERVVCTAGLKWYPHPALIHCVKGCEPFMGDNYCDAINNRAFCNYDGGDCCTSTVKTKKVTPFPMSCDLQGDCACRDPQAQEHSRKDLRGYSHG

Assays:
[1] = target: recombinant wild-type PAPP-A, MBP-His10 tagged (human) (UniProt Q13219); experiment: gel of covalent complexes (lanes of Supplementary Fig. S10b, c); PAPP-A WT or C1130S alone or with proMBP or STC2; kind of gel and samples not shown
[2] = target: proform of eosinophil major basic protein (proMBP), endogenous, from pregnant human plasma (human (endogenous in pregnant plasma)) (UniProt P13727); experiment: cryo-EM structure; PAPP-A·proMBP complex purified from pregnant human plasma, 0.2 mg/mL, in PBS pH 7.4; 2:2 map with C2 symmetry and half map after symmetry expansion; both purified

B1: recombinant proMBP (modulator protein) (protein, UniProt P13727 17-222)
chain: LHLRSETSTFETPLGAKTLPEDEETPEQEMEETPCRELEEEEEWGSGSEDASKKDGAVESISVPDMVDKNLTCPEEEDTVKVVGIPGCQTCRYLLVRSLQTFSQAWFTCRRCYRGNLVSIHNFNINYRIQCSVSALNQGQVWIGGRITGSGRCRRFQWVDGSRWNFAYWAAHQPWSRGGHCVALCTRGGHWRRAHCLRRLPFICSY
[1]
  binding: binds

B2: proform of eosinophil major basic protein (proMBP), endogenous, from pregnant human plasma (protein, UniProt P13727 17-222)
chain: B1 chain
[2]
  binding: no binding
